Reference: patent US20130224854A1 (NIPPON KAYAKU, published 2013)
Results are given in words; binding and its absence hold for the method and conditions named. Some binding calls cover weakened binding; strength is not graded here.

Target: T1, peptide … (SEQ ID NO: 41) (human)
T1 sequence (peptide): GIGIPGLRG
Assay: dot blot of synthetic peptides with NK46141 as a probe

B1: monoclonal antibody NK46141 (antibody, V domains shown)
VH: EVQLVESGGGLVKPGGSLKLSCAASGFTFTDYYMYWVRQTPEKRLEWVATISEGGSYTYYPDSVKGRFTISRDNAKNNLYLQMSSLKSEDTAMYYCASPYYGDGGFAYWGQGTLVTVSA
VL: DVLMTQTPLSLPVSLGDQASISCRSSQSIVHSDGNTYLEWYLQKPGQSPRLLIYKVSNRFSGVPDRFSGSGSGTDFTLKISRVEAEDLGVYYCFQGSHVPPTFGGGTKLEIKR
notes: also called anti-single-chain type IV collagen polypeptide antibody; Anti NK-Antigen monoclonal antibody #141
B1 was tested, and the binding was “binds”.
